# Experimental data reported in patent US7495147B2, “Neuregulin-1 transgenic mouse and methods of use” (deCODE genetics ehf., priority 2000, dated 2009).
# For at least one compound, name, drawing or mass did not settle the structure.
# Test system: NRG1TM hypomorphic mice
# Assay: open field test of locomotor activity in NRG1TM hypomorphic mice and litter-mate controls
# Assay type: in vivo, mouse
# Settings: clozapine 1 mg/kg i.p. 25 min prior to testing, 30 min open field
# Method: Male NRG1TM hypomorphs, ErbB4 hypomorphs and litter-mate controls for each line were bred at Charles River Laboratories USA by crossing to a C57B16 background. They were shipped to the testing laboratory at PsychoGenics Inc. NY, USA (six weeks prior to behavioral testing) where they were housed in groups of 3-5 related mice per cage. The open field study was conducted when the male mice were 5 to 6 months of age. Group housed mice were brought into the experimental room and allowed to acclimate for one hour prior to testing. Each mouse was placed for 30 minutes in a square open field box (17×17×12 inch). Up to eight animals were tested at one time, one animal in each of eight arenas, under low lighting conditions (provided by a 15 watt red lamp). The automated infrared beam array system measured locomotion in the center and periphery of the test arena. Activity data were collected in 5 min intervals over the 30 min open field session and analyzed with a series of repeated measures analysis of variance (ANOVA) with session interval as a within-subject factor and genotype as a between-subject factor. Clozapine (1 mg/kg in 1% Tween 20, pH 6.0) was injected intraperitoneally (i.p.) 25 min before behavioral testing. Total activity data from the study with clozapine were analyzed with a two-tailed, Student's t-test. Naïve mice were used for these experiments. […]
smiles,measurement,setting,value
"CN1CCN(C2=Nc3cc(Cl)ccc3Nc3ccccc32)CC1 [Clozapine, clozapine]",increased open field locomotor activity (hyperactivity) of NRG1TM mice,,reversed the increased activity
same,increased open field locomotor activity (hyperactivity) of NRG1TM mice,listed as clozapine,ameliorated
